Results are given in words; binding and its absence hold for the method and conditions named. In cells and extracts the contact can be indirect. These calls come from enrichment with a bait or labelling near it, and not all partners need be listed.
T1: FOXP1 (chicken (endogenous in embryonic tissue)) (UniProt Q58NQ4)
T1 sequence: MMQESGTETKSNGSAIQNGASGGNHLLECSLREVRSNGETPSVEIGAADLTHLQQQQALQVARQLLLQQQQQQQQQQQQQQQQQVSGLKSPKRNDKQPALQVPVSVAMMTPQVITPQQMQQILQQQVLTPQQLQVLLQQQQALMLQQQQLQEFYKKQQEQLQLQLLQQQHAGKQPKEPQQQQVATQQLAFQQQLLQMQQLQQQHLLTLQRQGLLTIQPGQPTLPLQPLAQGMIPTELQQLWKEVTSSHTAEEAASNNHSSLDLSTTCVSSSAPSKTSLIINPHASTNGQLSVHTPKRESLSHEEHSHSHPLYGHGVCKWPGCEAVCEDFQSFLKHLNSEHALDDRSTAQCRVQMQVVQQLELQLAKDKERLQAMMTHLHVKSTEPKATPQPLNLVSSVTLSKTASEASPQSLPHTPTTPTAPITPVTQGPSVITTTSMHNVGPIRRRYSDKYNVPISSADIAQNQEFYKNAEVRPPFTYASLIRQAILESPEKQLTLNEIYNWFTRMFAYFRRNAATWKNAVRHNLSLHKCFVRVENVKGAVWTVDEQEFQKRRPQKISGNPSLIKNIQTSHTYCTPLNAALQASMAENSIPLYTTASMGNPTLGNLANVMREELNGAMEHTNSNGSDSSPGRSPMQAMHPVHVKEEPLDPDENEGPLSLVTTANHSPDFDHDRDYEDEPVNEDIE

Chains of the proteins cited; added tags and fusions are not shown.
UniProt P48434: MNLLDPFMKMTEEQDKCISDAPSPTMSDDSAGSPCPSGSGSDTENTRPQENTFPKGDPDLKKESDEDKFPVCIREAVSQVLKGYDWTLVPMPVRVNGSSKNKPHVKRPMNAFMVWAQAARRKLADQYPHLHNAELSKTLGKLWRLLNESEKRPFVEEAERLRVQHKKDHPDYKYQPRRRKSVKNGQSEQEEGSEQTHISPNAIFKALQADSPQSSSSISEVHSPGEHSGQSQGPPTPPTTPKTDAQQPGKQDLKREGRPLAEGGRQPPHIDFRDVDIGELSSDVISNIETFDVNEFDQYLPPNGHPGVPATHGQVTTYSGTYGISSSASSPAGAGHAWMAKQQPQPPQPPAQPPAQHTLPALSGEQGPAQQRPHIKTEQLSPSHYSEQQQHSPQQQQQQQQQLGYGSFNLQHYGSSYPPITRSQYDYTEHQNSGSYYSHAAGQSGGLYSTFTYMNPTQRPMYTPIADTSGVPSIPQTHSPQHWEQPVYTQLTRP
UniProt A0A1D5P7L2: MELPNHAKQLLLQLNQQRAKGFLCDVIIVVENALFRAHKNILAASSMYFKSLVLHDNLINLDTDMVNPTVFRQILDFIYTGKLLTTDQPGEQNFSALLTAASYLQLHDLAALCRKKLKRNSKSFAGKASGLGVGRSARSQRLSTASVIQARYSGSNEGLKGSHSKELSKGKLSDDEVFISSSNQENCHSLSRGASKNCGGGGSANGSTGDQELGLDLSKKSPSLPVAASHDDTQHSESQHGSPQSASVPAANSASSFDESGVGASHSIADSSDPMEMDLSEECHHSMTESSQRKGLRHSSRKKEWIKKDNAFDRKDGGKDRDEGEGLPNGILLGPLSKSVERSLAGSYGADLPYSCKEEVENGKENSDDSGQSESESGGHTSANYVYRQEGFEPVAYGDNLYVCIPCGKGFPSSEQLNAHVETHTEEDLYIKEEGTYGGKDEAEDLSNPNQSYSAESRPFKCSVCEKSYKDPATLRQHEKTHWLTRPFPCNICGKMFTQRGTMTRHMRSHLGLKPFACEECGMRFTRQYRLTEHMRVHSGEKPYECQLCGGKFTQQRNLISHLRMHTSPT
UniProt A0A8V0Y4A6: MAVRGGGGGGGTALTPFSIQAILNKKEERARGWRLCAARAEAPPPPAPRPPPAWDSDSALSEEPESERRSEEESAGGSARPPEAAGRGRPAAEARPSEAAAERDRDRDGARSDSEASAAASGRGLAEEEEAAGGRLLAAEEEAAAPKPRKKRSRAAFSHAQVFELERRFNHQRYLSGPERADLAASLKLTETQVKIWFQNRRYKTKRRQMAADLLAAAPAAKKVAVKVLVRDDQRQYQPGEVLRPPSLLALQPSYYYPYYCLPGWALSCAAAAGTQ


Key:
[1] = biological target: T1, FOXP1 (chicken (endogenous in embryonic tissue)); assay: affinity purification with mass spectrometry; RIME: HH29 chicken neural crest-, somite- and limb-derived tissue cross-linked with 2 mM DSG (40 min) and 1% formaldehyde (13 min), nuclei lysed and sonicated, incubated overnight at 4 °C with anti-SOX9 or anti-FOXP1 and protein A/G Dynabeads, washed with RIPA and AMBIC, LC-MS/MS; quadruplicates; differential abundance across embryonic origins
[2] = biological target: SOX9 (chicken (endogenous in embryonic tissue)) (UniProt P48434); assay: as above

Row | binding [1] | binding [2] | Molecule
1 | binds | – | HIC2 (from UniProt A0A1D5P7L2 1-570)
2 | – | binds | NKX3-2 (from UniProt A0A8V0Y4A6 1-276)
3 | binds | – | HIC1 (protein, UniProt Q90850 1-676) APGARPAASRERGHKSREERCGERGAAAGRRARGAMLEAMEVPSHSRQLLLQLNTQRTKGFLCDVIIVVQNALFRAHKNILAASSAYLKSLVVHDNLLNLDHEMVSPGIFRLILDFIYTGRLGECEPGGEQSLGAVLAAASYLQIPGLVALCKKKLKRSGKYCHLRGGYAPYKLGRGLRATTPVIQACYSGTPRPVDLQPVEPAAPLNTQCGELYASASQGTPLHPHGLCPPERHCSPPCGLDLSKKSPTGPSAQLLPTDRLLPAEPREPSLPPRHDSPPVSGGLLAGHPAAYKDSPPGGEPGGHPHATDPFRSTPPCAEPPLPRGDGRELMYRWMKHEPLGPYLDEGEAEKELEREEKAESPPAAPQPRYPSVESNDLEPDNSTSEETGSSEGPSPGDALDRYCNHLGYEPESLGDNLYVCIPCGKGFPSSEQLNAHVEAHNEEELYHKAAAEQAVPFLDKGGAGLGDILRPYRCSSCDKSYKDPATLRQHEKTHWLTRPYPCTICGKKFTQRGTMTRHMRSHLGLKPFACDACGMRFTRQYRLTEHMRIHSGEKPYECQVCGGKFAQQRNLISHMKMHAAGPDGKAKLDFPDSVYAMARLTADQLGLKQEKAAELLSHTSHFLSDPKAMESLYPLAKFTAEHLGLSQDKAAEVLAQAPHLHADAARTIERYSPP

From publication PMC11880379
